This passage reports binding results from PMC12616069.

Amino acid sequences for entries named in this document (tags omitted). A change or cut given only in a name is not applied to a line headed by its entry.
UniProt Q9UKE5: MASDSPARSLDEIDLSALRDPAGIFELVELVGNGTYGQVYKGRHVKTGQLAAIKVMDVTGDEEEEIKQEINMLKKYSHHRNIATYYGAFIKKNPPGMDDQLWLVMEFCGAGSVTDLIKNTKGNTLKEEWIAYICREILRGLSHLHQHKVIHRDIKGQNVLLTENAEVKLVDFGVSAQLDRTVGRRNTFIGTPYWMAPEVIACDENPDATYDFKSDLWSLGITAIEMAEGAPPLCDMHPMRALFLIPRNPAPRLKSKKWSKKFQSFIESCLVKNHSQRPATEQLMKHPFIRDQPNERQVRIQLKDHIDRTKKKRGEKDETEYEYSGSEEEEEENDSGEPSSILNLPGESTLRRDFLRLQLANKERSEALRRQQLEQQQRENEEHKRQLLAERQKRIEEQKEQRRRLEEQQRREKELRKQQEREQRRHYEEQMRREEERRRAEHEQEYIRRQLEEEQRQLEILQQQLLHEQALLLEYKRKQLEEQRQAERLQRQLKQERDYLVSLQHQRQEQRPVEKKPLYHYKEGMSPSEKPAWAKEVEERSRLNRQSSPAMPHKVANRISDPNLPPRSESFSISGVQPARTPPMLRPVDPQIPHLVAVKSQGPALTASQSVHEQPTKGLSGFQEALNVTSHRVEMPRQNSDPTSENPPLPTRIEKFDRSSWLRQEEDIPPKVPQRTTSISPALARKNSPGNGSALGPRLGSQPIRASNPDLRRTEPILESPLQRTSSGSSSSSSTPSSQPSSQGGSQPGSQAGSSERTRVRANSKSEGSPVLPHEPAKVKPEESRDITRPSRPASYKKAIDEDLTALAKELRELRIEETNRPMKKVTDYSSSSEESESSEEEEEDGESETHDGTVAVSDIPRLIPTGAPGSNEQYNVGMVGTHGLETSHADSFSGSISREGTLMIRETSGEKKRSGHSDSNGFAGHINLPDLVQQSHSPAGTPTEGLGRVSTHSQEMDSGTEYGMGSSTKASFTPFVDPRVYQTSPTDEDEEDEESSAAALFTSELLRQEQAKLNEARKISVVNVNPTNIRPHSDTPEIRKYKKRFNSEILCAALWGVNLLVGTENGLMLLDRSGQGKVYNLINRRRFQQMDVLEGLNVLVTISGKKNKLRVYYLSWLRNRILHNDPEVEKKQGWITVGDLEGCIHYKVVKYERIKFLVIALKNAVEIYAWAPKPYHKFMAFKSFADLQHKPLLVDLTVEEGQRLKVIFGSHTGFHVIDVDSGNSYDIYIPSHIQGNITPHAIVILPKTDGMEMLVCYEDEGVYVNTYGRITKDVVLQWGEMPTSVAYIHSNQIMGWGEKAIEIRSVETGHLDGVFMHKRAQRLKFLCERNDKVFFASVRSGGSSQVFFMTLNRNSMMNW
UniProt P06396: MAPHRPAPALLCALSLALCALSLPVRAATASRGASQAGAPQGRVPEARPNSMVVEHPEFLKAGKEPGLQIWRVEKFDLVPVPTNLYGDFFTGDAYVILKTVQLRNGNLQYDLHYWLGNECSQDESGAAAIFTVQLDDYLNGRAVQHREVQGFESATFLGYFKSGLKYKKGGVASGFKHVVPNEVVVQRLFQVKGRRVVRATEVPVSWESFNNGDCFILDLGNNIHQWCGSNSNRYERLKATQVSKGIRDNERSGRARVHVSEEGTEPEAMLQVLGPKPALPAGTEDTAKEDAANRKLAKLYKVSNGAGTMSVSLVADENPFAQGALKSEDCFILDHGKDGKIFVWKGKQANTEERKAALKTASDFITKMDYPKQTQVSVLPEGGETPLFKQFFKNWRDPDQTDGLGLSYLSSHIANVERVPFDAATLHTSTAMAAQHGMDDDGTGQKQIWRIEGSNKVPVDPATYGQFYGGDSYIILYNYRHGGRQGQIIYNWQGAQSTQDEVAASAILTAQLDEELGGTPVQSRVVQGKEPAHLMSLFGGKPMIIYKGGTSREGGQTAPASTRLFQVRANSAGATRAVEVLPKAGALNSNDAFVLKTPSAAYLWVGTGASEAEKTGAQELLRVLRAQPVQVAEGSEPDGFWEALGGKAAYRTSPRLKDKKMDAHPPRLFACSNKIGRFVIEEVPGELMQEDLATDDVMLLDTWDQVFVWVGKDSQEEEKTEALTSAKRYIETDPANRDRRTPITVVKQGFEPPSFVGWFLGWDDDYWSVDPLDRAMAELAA

No constants are given. Whether binding was seen depends on the method and setting. In cells and extracts the contact can be indirect. Binding calls can cover weak binding; strength is not graded here.

The target of the test is TRAF2 and NCK interacting kinase (human (endogenous in platelets)) (UniProt Q9UKE5). The test is described as follows: co-IP; endogenous TNIK immunoprecipitated (1 ug TNIK antibody, protein A/G beads) from lysates of resting or collagen-stimulated (25 ug/mL, 3 min) human platelets prepared under non-aggregating conditions; 1% NP40 lysis buffer (150 mM NaCl, 10 mM Tris, 5 mM EDTA, pH 7.3); beads washed in 0.5% NP40 buffer; immunoblot of the precipitate. On the technique in general: In western blotting, separated proteins are transferred to a membrane and probed.

Take gelsolin (from UniProt P06396): the binding entry is “binds”.
